# Experimental data reported in patent US20200003760A1, “IN-VITRO METHODS FOR CLASSIFYING DRUGS ACCORDING TO THEIR POTENTIAL TO CAUSE LIVER CELL INJURY” (Board of Trustees of Michigan State University, priority 2018, published 2020).
# At least one read-out could not be matched to a standard name with certainty.
# System: HepG2 cells
# Assay: Drug/cytokine-induced cytotoxicity (% LDH release) concentration-response in HepG2 cells
# Type: cell-based, human
# Details: for EC50 TNF/IFN: LDH release, NA = no statistically significant increase from min
# Procedure: Cells were passed or used for experiments when they reached approximately 80% confluence. Cells were used at passage 6-16.
# HepG2 cells were plated at a density of 4×10^4 cells per well in black-walled, 96-well, tissue culture plates and were allowed to attach overnight before being treated with compounds. Drugs were reconstituted in vehicles consisting of sterile water or DMSO (concentration less than 0.5%). Cells were treated with various concentrations of the drug or its vehicle (control) alone or in combination with the cytokines TNF (10 ng/ml) and/or IFN (10 ng/ml) or their PBS vehicle (VEH). Cytotoxicity was evaluated as lactate dehydrogenase (LDH) activity released from the cells into culture medium using the Homogeneous Membrane Integrity Assay kit from Promega (Madison, Wis.).
# Concentration-response curves were generated for 24 drugs, 14 of which are associated with human IDILI and 10 of which are not. […] This was necessary because four-parameter logistic modeling used in the statistical analysis requires well defined, sigmoidal concentration-response curves. Cells were exposed to drug/cytokine combinations for 24 hours. For analysis of drug concentration-response data, concentrations of each drug were expressed as a fraction of its Cmax.
# Defining covariates: four-parameter logistic model. In the first phase, variables (potential covariates) for use in the classification analysis were defined from the analysis of drug concentration-response data. Initially, a one-way analysis of variance (ANOVA) was used as an omnibus test to determine if a particular treatment (e.g. drug alone or in combination with TNF and/or IFN) caused a significant change in LDH release relative to baseline (i.e., LDH release in the absence of drug, hereafter designated “min”). The criterion for significance for the ANOVA was set at α=0.01. A 1% level of significance was used to rule out more vigorously marginal relationships between concentration and response.
# where LDH(x) is the percentage of LDH released at a given concentration x; x=[drug]/Cmax; min=the % LDH release at 0 drug concentration (i.e., baseline); and max=the maximal LDH response (i.e., maximum % LDH release).
# where D10 is a categorical variable related to reaching a threshold LDH response above which a drug is classified as positively associated with IDILI. D10 is defined as 0 if Delta<10% LDH release and as 1 if Delta≥10% LDH release.
# The base covariate R10 represents the [drug]/Cmax value associated with an increase in 10 LDH percentage points above min for a particular treatment condition and was determined by the equation:
# R10 was considered to be 0 when the Delta<10% LDH (i.e. when D10=0). […]
SMILES,"EC50 TNF/IFN (24 h, with TNF and IFN)","D10 TNF/IFN (categorical, Delta threshold 10 LDH percentage points, with TNF and IFN)","max TNF/IFN (maximal LDH response, with TNF and IFN 10 ng/ml each, 24 h) [% LDH release]"
CC(C)Cc1ccc(C(C)C(=O)O)cc1 (stereo not shown) [Ibuprofen],39.9 [drug]/Cmax,,
O=C1CC2(CCCC2)CC(=O)N1CCCCN1CCN(c2ncccn2)CC1 [Buspirone],,0 (D10 = 0 when Delta ≤ 10 LDH percentage points),17.9
N[C@@H]1[C@H]2CN(c3nc4c(cc3F)c(=O)c(C(=O)O)cn4-c3ccc(F)cc3F)C[C@@H]12 [Trovafloxacin],8.5 [drug]/Cmax,,
